This is an account of results in patent US20080293632.

Sequences of proteins named here, by UniProt entry; tags and fusion partners are left off. Residues count along the entry.
UniProt O15266, 1-194: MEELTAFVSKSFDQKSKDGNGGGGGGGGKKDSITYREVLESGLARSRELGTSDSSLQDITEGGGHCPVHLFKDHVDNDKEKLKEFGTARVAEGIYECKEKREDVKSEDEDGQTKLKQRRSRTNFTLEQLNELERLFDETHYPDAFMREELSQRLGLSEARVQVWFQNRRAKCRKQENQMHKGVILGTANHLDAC

A weaker result is weaker than the reference pair of the same experiment.

For the data set, the target named is SHOX-GST (GST-SHOX-STM, SHOX aa 1-194) (Homo sapiens) (UniProt O15266). Briefly: EMSA. Conditions: two-nucleotide substitution almost completely abolished binding, purified recombinant protein, protein details: N-terminal GST (pGEX, E. coli), label: 32P. In general terms: A gel shift assay detects complexes by their altered migration in electrophoresis.

As to “GGGTCACCAGGCCACCTGCTGATGATAGTTAGATCATGGGTGGTCAGATG (double strand) [BNP-1220b]”, where the note is “variant of BNP-1220 Wt”, the binding result is listed as “binds more weakly”. Regarding “GGGTTCCTGGTCATACCCAGGCTTTTGATGAATGGCCACTGGGGAATCAGCAT (double strand) [BNP-600a]”, the binding result (variant of BNP-600 Wt) is on record as “binds more weakly”. Take “TAATCACCAGGCCACCTGCTACTGATAACTAGATCATGGGTGGTCAGATG (double strand) [BNP-1220a]”: the binding result (variant of BNP-1220 Wt) was “binds more weakly”.
